Source: the supplement of paper PMC12889115
The list shows a part of the results. These are raw signals, not scaled to a control.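 First-pass screen: polymyxin B was added at a level that permeabilizes the Salmonella outer membrane while sparing the inner membrane. DMSO wells, with and without polymyxin B, defined maximum growth. Because plates differed from one another, each plate's data were ranked separately and the compounds with the lowest OD600 were carried forward as hits.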

Tested on: Salmonella enterica serovar Typhimurium SL1344
Assay: bacterial growth OD600 after 18 h with compound and polymyxin B; higher = more bacterial growth (less inhibition)
Settings: 50 µM, Mueller-Hinton broth

Row | SMILES | bacterial growth OD600 (polymyxin B 0.75 µg/mL) | bacterial growth OD600 (polymyxin B 1 µg/mL)
1 | O=C(NCc1cccnc1)c1ccc(N2CCC(NCc3cccc(C(F)(F)F)c3)CC2)cc1 | 0.795 | –
2 | COCCN1CC(C(=O)NCCc2nc(C)cc(C(F)(F)F)n2)CCC1=O (configuration not stated) | – | 0.838
3 | O=C(NCC1CCCN(Cc2ccccc2)C1)c1cccs1 (configuration not stated) | – | 0.886
4 | O=C(c1cccc(Cn2cccn2)c1)N1CCCC(Nc2ccc(F)cc2)C1 (configuration not stated) | – | 1.03
5 | Cc1ccc(CN2CCN(Cc3ccc(F)cc3)CC2CCO)cc1 (configuration not stated) | – | 0.755
6 | CN(CC1CCCN(CCc2ccc(Cl)cc2)C1)C(=O)c1cc(C2CC2)on1 (configuration not stated) | – | 0.857
7 | COc1cccc(CCC2CCCN(C(=O)CCSC)C2)c1 (configuration not stated) | 0.008 | –
8 | COc1cccc(NC(=O)CCC2CCN(C(=O)C3=C(C)OCCO3)CC2)c1 | – | 1.23
9 | Cc1ccc(Oc2ncccc2CNCc2cccn2-c2ncccn2)cn1 | – | 1.12
10 | O=C(CCc1cccnc1)NCc1cccnc1Oc1ccc(F)cc1F | – | 0.993
11 | O=C(NCc1nc(NCCCc2ccccc2)c2ccccc2n1)c1cnc2ccccn2c1=O | 0.811 | –
12 | COc1cc(-c2cccs2)cc2c1OCCN(CC(C)C)C2 | 0.89 | –
13 | COC(=O)c1cccc(-c2cc(Cl)c3c(c2)CC(CNC(=O)CSc2ncccn2)O3)c1 (configuration not stated) | 0.008 | –
14 | COCCNc1ccc(-c2nc(-c3ccccc3C)no2)cn1 | 0.008 | –
15 | O=C(NCc1cccnc1)c1ccc(N2CCC(NCCc3ccccc3C(F)(F)F)CC2)cc1 | 0.773 | –
16 | COc1cc2c(cc1CNCc1cccnc1N1CCCCCCC1)OCO2 | 0.796 | –

Row | SMILES | bacterial growth OD600 (polymyxin B 0.75 µg/mL) | bacterial growth OD600 (polymyxin B 1 µg/mL)
17 | O=C(NC1CC1)C1CCCN(C2CCN(C3Cc4ccccc4C3)CC2)C1 (configuration not stated) | 0.84 | –
18 | COc1cc(CN2CCC(n3nccc3NC(=O)CC(C)C)CC2)ccc1F | – | 0.933
19 | CN(Cc1ccccc1)C1(C(=O)N2CC[C@H](O)C2)Cc2ccccc2C1 | 0.564 | –
20 | O=C(c1ccc(N2CCC(NCC(c3ccccc3)c3ccccc3)CC2)cc1)N1CCCC(O)C1 (configuration not stated) | 0.778 | –
21 | OCCC1CN(Cc2cc(F)cc(F)c2)CCN1Cc1ccccc1F (configuration not stated) | – | 0.837
22 | COc1ccccc1OCC(=O)N1CCc2onc(-c3ccccc3F)c2C1 | 0.533 | –
23 | CCN(Cc1nccn1C)C(=O)c1ccc(N2CCCC2)nc1 | – | 0.888
24 | CCNCc1cn(-c2ccccc2)nc1-c1ccc2c(c1)OCO2 | – | 0.842
25 | O=C(CCCc1ccccc1)Nc1cccc(N2CCC(N3CCC(Oc4cccnc4)CC3)CC2)c1 | 0.541 | –
26 | CC(C)CN(C)c1ccc(C(=O)N2CCCN(c3ncccn3)CC2)cn1 | 0.717 | –
27 | O=C(CCc1c[nH]c2ccccc12)N1CCOc2ccc(CN3CCN(c4ccccn4)CC3)cc2C1 | 0.801 | –
28 | CCOC(=O)C1(Cc2ccccc2)CCN(Cc2cccc(OC)c2OC)CC1 | – | 0.803
29 | Cc1ccc(OCc2cc(C(=O)NC(C)Cn3nc(C)cc3C)no2)cn1 (configuration not stated) | – | 0.933
30 | CN1CCCC2(CCN(C(=O)CCn3cnc4ccccc43)C2)C1=O (configuration not stated) | – | 0.769
31 | COc1ccc(CCN(C)C2CCCN(C(=O)c3cc(CC(C)C)n[nH]3)C2)cc1OC (configuration not stated) | – | 0.862
32 | COc1ccc(F)c(CN2CCCC3(CCN(C(=O)c4ccccc4)C3)C2=O)c1 (configuration not stated) | – | 0.903

Looked up above:
In bacterial growth OD600 (polymyxin B 1 µg/mL), OCCC1CN(Cc2cc(F)cc(F)c2)CCN1Cc1ccccc1F (configuration not stated) is listed with 0.837
In bacterial growth OD600 (polymyxin B 0.75 µg/mL), O=C(c1ccc(N2CCC(NCC(c3ccccc3)c3ccccc3)CC2)cc1)N1CCCC(O)C1 (configuration not stated) is listed with 0.778
